Measurements published in PubChem BioAssay AID652054 (National Center for Advancing Translational Sciences (NCATS), 2013).
The campaign covered roughly 360,000 compounds. About 9,100 (2.5%) were called active. This list was built around the results that the source calls inconclusive (neither active nor inactive); the mix of calls is not that of the screen. No stated cut-off is given here; in the data, active means max response below about -50%; inconclusive means no clear call, values can overlap the other calls; inactive means above that.
On the % scale 0 is the no-effect control and ±100 the full control effect.

Amino acid sequences for entries named in this document (tags omitted).
UniProt P35462, whole entry, looked up: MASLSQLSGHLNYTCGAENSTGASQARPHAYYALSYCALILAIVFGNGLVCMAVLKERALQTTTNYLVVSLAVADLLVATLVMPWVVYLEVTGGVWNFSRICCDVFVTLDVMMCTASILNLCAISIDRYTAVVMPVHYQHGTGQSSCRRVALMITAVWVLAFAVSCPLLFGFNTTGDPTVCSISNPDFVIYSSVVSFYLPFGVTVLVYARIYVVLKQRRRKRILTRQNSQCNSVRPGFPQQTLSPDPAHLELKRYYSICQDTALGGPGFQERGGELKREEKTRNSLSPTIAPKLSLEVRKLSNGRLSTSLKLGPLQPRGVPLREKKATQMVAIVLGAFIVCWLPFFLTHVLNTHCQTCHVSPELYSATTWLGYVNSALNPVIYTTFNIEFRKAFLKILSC

The compounds below were run against D(3) dopamine receptor (Homo sapiens) (UniProt P35462) (assay: qHTS of D3 Dopamine Receptor Antagonist: qHTS). Conditions: D3R cells, DiscoveRx beta-arrestin luminescence, antagonist mode; stronger effect = lower value.
In short: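 Cells plated overnight at 1500 cells/well, then exposed to library compounds with dopamine controls for 90 minutes at 37 degrees C. DiscoveRx reagent added for 30–60 minutes at room temperature; luminescence read, quantitative HTS format.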
For `COc1ccc(-n2c(SC3CCOC3=O)nc3ccccc32)cc1` (stereo not drawn), the max response, negative = inhibition was inconclusive: -32.2%.
In the case of `COC(=O)[C@H](Cc1ccccc1)NC(=O)[C@@H]1C[C@H]1[C@@H](NC(=O)OCc1ccccc1)c1ccccc1`, the max response, negative = inhibition is reported as inconclusive: -31.6%.
In the case of `CCOC(=O)[C@]12CCCC=C1N(Cc1cccc3ccccc13)C(=O)[C@H](CC(=O)NCc1cccs1)C2`, the max response, negative = inhibition is reported as inactive: -22.2%.
`COc1cc(Cl)ccc1OC1(C)CCN(Cc2ccccc2OC(F)F)C1` (stereo not drawn) was tested, and the max response, negative = inhibition was inconclusive: -40.7%.
In the case of `CSc1nc2cc(C)nn2c(-c2ccccc2Cl)c1C#N`, the max response, negative = inhibition is reported as inactive: 0.15%.
With `CCC(C)NCCOCCSc1ccc(Cl)cc1` (stereo not drawn) the max response, negative = inhibition was active: -78.3%.
With `Cc1cc(NC(=O)Nc2cc(F)ccc2F)no1` the max response, negative = inhibition was inconclusive: -36.7%.
With `Cc1ccc(NC(=O)C2CCCN2c2nn3c(=O)cc(C)nc3s2)cc1` (stereo not drawn) the max response, negative = inhibition was inactive: -4.06%.
With `CCOc1ccccc1N1CCN(Cc2cnc(-c3ccccc3)[nH]2)CC1` the max response, negative = inhibition was active: -94%.
In the case of `O=c1[nH]c2cc3c(cc2cc1C(c1nnnn1CC1CCCO1)N1CCCC1)OCO3` (stereo not drawn), the max response, negative = inhibition is reported as inactive: -7.81%.
In the case of `Cn1c(=O)oc2cc(S(=O)(=O)NCc3ccccc3)ccc21`, the max response, negative = inhibition is reported as inactive: 11.3%.
For `Cc1c(CN2CCCCC2C)c(=O)n(-c2ccccc2)n1C` (stereo not drawn), the max response, negative = inhibition was active: -58.2%.
`Cc1ccc(C(=O)NCc2ccco2)cc1Br` was tested, and the max response, negative = inhibition was inconclusive: -44.9%.
With `CC(=O)N(C)c1ccc(NC(=S)Nc2cccc3ccccc23)cc1` the max response, negative = inhibition was inconclusive: -39.9%.
In the case of `CCCOc1ccc(C(=O)NCC(c2cccs2)N(C)C)cc1OC` (stereo not drawn), the max response, negative = inhibition is reported as inconclusive: -36.4%.
For `Cc1nc2c(ccc3nc(NC(=O)C(c4ccccc4)c4ccccc4)sc32)s1`, the max response, negative = inhibition was inconclusive: -42.3%.
`Cn1cccc1C(=O)Nc1nc(-c2ccccn2)cs1` was tested, and the max response, negative = inhibition was active: -56.3%.
With `COC(=O)c1sccc1-c1ccc(C(=O)Nc2ccccc2)o1` the max response, negative = inhibition was inactive: 9%.
`CCOc1ccc(-n2nc3c(=S)[nH]nc(C)c3c2C)cc1` was tested, and the max response, negative = inhibition was inconclusive: -32%.
For `COc1ccc(NC(=O)CN(C)CC(=O)Nc2ccc(C)c(S(=O)(=O)N3CCCCC3)c2)cc1`, the max response, negative = inhibition was inactive: -1.57%.
With `CN1CCN(/C=N/c2c(C#N)cnn2-c2ccccc2)CC1` the max response, negative = inhibition was inconclusive: -45.1%.
`COc1cc(OC)cc(-c2c(-c3ccsc3)c3cc(Br)ccc3n2C)c1` was tested, and the max response, negative = inhibition was inconclusive: -30.3%.
With `COc1c(C(=O)Nc2ccc(CN3CCOCC3)cc2)cc2ccccc2c1Br` the max response, negative = inhibition was inactive: -15.9%.
For `CC1=C(C(=O)OC(C)C)C2(O)C(=O)c3ccccc3C2(O)N1` (stereo not drawn), the max response, negative = inhibition was inconclusive: -36.4%.
For `CCCCCn1c(=O)[nH]c2cc(C(=O)NCCCN(CC)CC)ccc2c1=O`, the max response, negative = inhibition was inconclusive: -35.8%.
`COc1ccc2nc(N/C(N)=N/S(C)(=O)=O)nc(C)c2c1` was tested, and the max response, negative = inhibition was inactive: 1.45%.
For `O=C(/C=C/c1cc(Br)ccc1O)c1ccco1`, the max response, negative = inhibition was inconclusive: -32.2%.
In the case of `COc1ccc(OC)c(S(=O)(=O)N2CCCCCC2)c1`, the max response, negative = inhibition is reported as inconclusive: -35.9%.
For `CN(C(=O)c1ccc(N2CCOCC2)c([N+](=O)[O-])c1)C1CCCCC1`, the max response, negative = inhibition was inconclusive: -43.3%.
For `CCOC(=O)c1c(NC(=O)c2cc3n(n2)C(C(F)(F)F)CC(c2ccccc2)N3)sc(C)c1C` (stereo not drawn), the max response, negative = inhibition was inconclusive: -46.1%.
With `Cc1cc(-c2nnc(SCC(=O)Nc3ccccn3)o2)no1` the max response, negative = inhibition was inconclusive: -30.4%.
For `O=C(Cc1ccccc1)NCC(=O)OCC(=O)c1ccc(OC(=O)c2ccccc2)cc1`, the max response, negative = inhibition was inconclusive: -46.4%.
`C[C@@H]1CN([C@H](C)CO)C(=O)CCCn2nncc2CO[C@H]1CN(C)S(C)(=O)=O` was tested, and the max response, negative = inhibition was inactive: 14.4%.
In the case of `O=c1[nH]c(CSc2nnc(NCCCN3CCOCC3)s2)nc2cc(Cl)ccc12`, the max response, negative = inhibition is reported as active: -63.1%.
For `CC(=O)Nc1ccc(N2C(=O)C3C4CC(=O)C(c5ccccc54)C3C2=O)cc1` (stereo not drawn), the max response, negative = inhibition was active: -60%.
In the case of `CC(C)c1ccc(-c2noc(C3CCCN(C(=O)c4ccc(F)cc4F)C3)n2)cc1` (stereo not drawn), the max response, negative = inhibition is reported as inactive: 58%.
With `COC(=O)Nc1ncc(CN2CCc3ccccc3C2)s1` the max response, negative = inhibition was active: -73.9%.
For `CCOC(=O)c1c(N)sc(C(O)(C(F)(F)F)C(F)(F)F)c1-c1ccc(F)cc1`, the max response, negative = inhibition was inconclusive: -36.1%.
With `O=C(Nc1ccc(O)cc1)c1ccc(C(=O)c2ccccc2)o1` the max response, negative = inhibition was inconclusive: -40.6%.
For `C[C@H](CO)N1C[C@H](C)[C@@H](CN(C)S(=O)(=O)c2ccccc2F)OCc2cnnn2CCCC1=O`, the max response, negative = inhibition was inconclusive: -30%.
In the case of `CC12CCC(C(N)=O)(C1Br)C2(C)C` (stereo not drawn), the max response, negative = inhibition is reported as inactive: -5.49%.
With `O=C(Cc1csc(Nc2nc(=S)[nH]c3ccccc23)n1)NCCCN1CCN(c2ccccc2F)CC1` the max response, negative = inhibition was active: -69.2%.
`OC(CN1CCN(Cc2ccccc2)CC1)c1ccc(Br)cc1` (stereo not drawn) was tested, and the max response, negative = inhibition was inconclusive: -48.2%.
`COc1ccc(Br)cc1CN1CCN(Cc2c[nH]c3ccccc23)CC1` was tested, and the max response, negative = inhibition was active: -89.9%.
In the case of `O=C(Nc1ccccc1)c1ccc(CN2CCc3ccccc3C2)cc1`, the max response, negative = inhibition is reported as inconclusive: -48.5%.
`COc1ccc(OCC(=O)Nc2ccc3c(c2)nc(CN2CCN(C(C)=O)CC2)n3C)cc1` was tested, and the max response, negative = inhibition was inactive: -10.3%.
With `Cc1c(C(=O)OC(C)C)sc(NC(=O)c2cccnc2)c1C#N` the max response, negative = inhibition was active: -61.4%.
In the case of `Cc1cc2oc(=O)cc(CN3CCCC3)c2cc1Cl`, the max response, negative = inhibition is reported as inconclusive: -33.4%.
In the case of `Cc1cccc2sc(N(CCN(C)C)C(=O)/C=C/c3cccs3)nc12`, the max response, negative = inhibition is reported as inconclusive: -34.8%.
For `CC1(C)Cc2c(cnn2-c2ccc(F)cc2)C(NC(=O)CCN2CCCC2=O)C1` (stereo not drawn), the max response, negative = inhibition was inactive: 15.1%.
In the case of `S=c1[nH]nc(Cc2ccc(Br)cc2)n1/N=C/c1ccc(Cl)cc1`, the max response, negative = inhibition is reported as inconclusive: -46.7%.
For `COc1cccc(CNC(=O)Cn2ncn3cccc3c2=O)c1OC`, the max response, negative = inhibition was inconclusive: -32.9%.
For `CCCCNc1cc(C)nc(NCc2ccccc2)n1`, the max response, negative = inhibition was active: -62.6%.
`O=c1c(Cl)c(N/N=C/c2ccc(Br)cc2)cnn1-c1ccccc1` was tested, and the max response, negative = inhibition was inactive: -9.83%.
`S=c1[nH]c(-c2ccccc2)cn1/N=C/c1ccccc1Br` was tested, and the max response, negative = inhibition was inconclusive: -38.4%.
For `COc1ccc(C(=O)Cn2c(NCCCO)nc3ccccc32)cc1`, the max response, negative = inhibition was inactive: 2.49%.
In the case of `COc1ccccc1/C=C/CN1CC(C)OC(C)C1` (stereo not drawn), the max response, negative = inhibition is reported as inconclusive: -32.7%.
In the case of `O=c1c2c3nc4ccccc4nc3n(Cc3ccccc3)c2ncn1Cc1ccco1`, the max response, negative = inhibition is reported as inconclusive: -45.6%.
